Values quoted from earlier work, collected in US20230073834A1, “SUBNORMOTHERMIC MACHINE PERFUSION OF ORGANS WITH CARBON MONOXIDE AND OXYGEN” (priority 2021, published 2023).
For at least one compound, name, drawing or mass did not settle the structure.

Conditions: cited from earlier work

## CN(CC(=O)O)C(=S)[S-].[C-]#[O+].[C-]#[O+].[C-]#[O+].[C-]#[O+].[Mn] [CORM-401]
  CO delivered: 3 molar equivalents
